Measurements from patent US5741476A, “Polyhydric phenol compounds” (Mallinckrodt Medical, Inc., priority 1992, dated 1998).
At least one read-out could not be matched to a standard name with certainty.

Assay: in vivo distribution in rats
Settings: i.v. tail vein, post-injection
Method: The in vivo distribution in rats is determined by injecting approx. 10 μCi of the compound to be evaluated into the tail vein of the test animals. The test animals are sacrificed at appropriate time intervals after injection and the radioactivity of the organs of interest is measured by gamma scintillation counting.

SMILES: O=C(CCc1ccc(O)c(I)c1)c1c(O)cc(O)cc1O [3-*I-phloretin]
- time of maximum uptake in heart (H/B): ~15 min
- time of maximum uptake in muscle (M/B): ~30 min
